# PubChem BioAssay AID540276 (National Center for Advancing Translational Sciences (NCATS), 2011)
# “And” between values parts separate entries of the source, which are not always exact repeats. Equal values may be shown once. The campaign covered roughly 300,000 compounds. About 5,400 (1.8%) were called active. The shares of active, inactive and inconclusive entries below differ from those in the screen. The call rests on the fitted dose curve; tested in HEK293 cells. A potency beside an inconclusive call is a rough fit, not a confirmed value.
# Assay: qHTS for inhibitors of binding or entry into cells for Marburg Virus
# Conditions: Marburg virus pseudotyped entry inhibition, cell reporter; activity change, negative = inhibition: at 37.8 µM (top of the series) unless noted
# On the % scale 0 is the no-effect control and ±100 the full control effect; potency means the concentration at half of the fitted maximal effect.
SMILES,"activity change, negative = inhibition",Potency
CCOc1ccc(C(=O)COC(=O)CC)cc1,inactive: 0% [at 46.1 µM],
Cc1ccc(NC(=O)c2cccc(N3C(=O)C4C5CCC(C5)C4C3=O)c2)c(C)c1 (stereo not given),,"inconclusive: 0.282 µM [activator, full curve, poor fit]"
CC(=O)Nc1nc2ccc(-c3nc4ccccc4o3)cc2s1,,"inconclusive: 7.08 µM [inhibitor, partial curve]"
O=S(=O)(CCSc1nc2ccccc2s1)c1nc2ccccc2s1,,"inconclusive: 23.1 µM [inhibitor, single point]"
Cc1cccc(N2CCC(N=CN(C)C)=N2)c1,,"inconclusive: 28.2 µM [activator, single point]"
Cc1ccc(C(=O)Nc2ccccc2-c2ccccc2)cc1S(=O)(=O)Nc1cccc(C)c1C,,"inconclusive: 13 µM [inhibitor, partial curve, poor fit]"
C[C@H]1Cc2c(-c3ccccc3)nc3c(c2CO1)CN(C(=O)Nc1cccc(C#N)c1)CC3,,inactive
CCn1cc(C(=O)NCc2ccco2)c(=O)c2cc(F)c(N3CCN(C(=O)c4ccco4)CC3)cc21,,"inconclusive: 20 µM [inhibitor, partial curve, poor fit]"
N#Cc1c(N)[nH]c(=S)c(C#N)c1-c1ccccc1,,"inconclusive: 1.16 µM [inhibitor, single point]"
CCOC(=O)CN1C(=O)C(O)(C2CCc3ccccc3C2=O)c2ccccc21 (stereo not given),,"inconclusive: 3.98 µM [activator, single point]"
CCCCN1CC(O)=C(c2nc3ccccc3s2)C1=N,,"inconclusive: 8.91 µM [inhibitor, partial curve, poor fit]"
CCc1ccc(C(=O)COC(=O)c2cccc(N3C(=O)c4c(C)nc5ccccc5c4C3=O)c2)cc1,,"inconclusive: 5.17 µM [inhibitor, partial curve, poor fit]"
CC1(C2CC2)NC(=O)N(CC(=O)Nc2ccccc2F)C1=O (stereo not given),inactive: 15.8%,
O=C(O)c1ccc(-c2nc(-c3ccccc3Cl)cs2)cc1,inactive: -6.43% [at 46.1 µM],
COc1ccc(OC)c(NC(=O)c2ccc(-n3cccn3)nc2)c1,,"inconclusive: 29.1 µM [activator, single point]"
O=C(Nc1ccccc1)Nc1ccncc1,inactive: -1.06% [at 46.1 µM],
CCCSc1nc2cc(OC)c(OC)cc2c(=N)n1CCCN1CCOCC1,,active: 14.1 µM
Cc1ccc(C(=O)Nc2nnc(S(=O)(=O)N3CCN(c4ccc(F)cc4)CC3)s2)cc1,,"inconclusive: 5.62 µM [activator, single point]"
CC1CC(C)CN(CCC(=O)Nc2ccc3c(c2)CCC3)C1 (stereo not given),,active: 7.3 µM
COc1cc(NC(=O)NCC2CCN(Cc3ccc(C)cc3)CC2)cc(OC)c1OC,,"inconclusive: 10 µM [inhibitor, partial curve, poor fit] and inconclusive: 4.47 µM [inhibitor, full curve, poor fit]"
COCCn1c(C)cc(C2=NNC(=Nc3ccc(OC)cc3)SC2)c1C,,"inconclusive: 7.3 µM [inhibitor, partial curve]"
CC(=O)c1c(C)[nH]c(C(=O)NCCc2cccc(C)c2)c1C,inactive: -28.6%,

SMILES,"activity change, negative = inhibition",Potency
Cc1ccc(C)c(Nc2cc(C(=O)NCCCN(C)C3CCCCC3)c3ccccc3n2)c1,,"inconclusive: 12.6 µM [inhibitor, partial curve, poor fit]"
CO[C@H]1C=CO[C@@]2(C)Oc3c(C)c(O)c4c(O)c(c(C=NN5CCN(C)CC5)c(O)c4c3C2=O)NC(=O)C(C)=CC=C[C@H](C)[C@H](O)[C@@H](C)[C@@H](O)[C@@H](C)[C@H](OC(C)=O)[C@@H]1C,,"inconclusive: 29.1 µM [inhibitor, partial curve, poor fit]"
CCN(CCO)Cc1csc2ccc(Cl)cc12,,"inconclusive: 5.62 µM [activator, partial curve, poor fit]"
COCCNCCCOc1ccc(Br)cc1Cl,,"inconclusive: 35.5 µM [inhibitor, single point]"
CN1/C(=C\C(=O)C[n+]2ccc3ccccc3c2)C(C)(C)c2ccccc21,,"inconclusive: 7.94 µM [inhibitor, partial curve]"
Nc1cc2c(cc1[N+](=O)[O-])-c1ccccc1C2=NO,,"inconclusive: 0.447 µM [activator, partial curve, poor fit]"
Cc1ccc2cc(C(c3nnnn3C3CCCC3)N3CCN(c4ccc(F)cc4)CC3)c(=O)[nH]c2c1 (stereo not given),,"inconclusive: 25.9 µM [inhibitor, single point]"
Cc1cc(C)c2nc(N3CCC(C(=O)N4CCN(c5ncccn5)CC4)CC3)sc2c1,inactive: -2.76%,
CC(C)N(CCn1c(SCC(=O)N2CC(=O)Nc3ccccc32)nc2ccccc2c1=O)C(C)C,,"inconclusive: 10 µM [inhibitor, partial curve]"
CCc1nc(Nc2ccc3c(c2)OCCO3)c2oc3ccccc3c2n1,inactive: -50%,
CC1=NN(c2ccccc2)C(=O)/C1=C/C=C/c1ccccc1,,"inconclusive: 12.6 µM [inhibitor, partial curve, poor fit]"
Cc1cccc(C)c1OCc1nc2ccccc2c(=O)n1/N=C/c1ccc(OCC(=O)O)cc1,,"inconclusive: 1.41 µM [inhibitor, single point]"
CCCCN(CC)Cc1ccc(CNC(=S)Nc2ccc(C)cc2Cl)o1,,"inconclusive: 22.4 µM [inhibitor, partial curve, poor fit]"
O=C(O)CCc1nnc2cnc3ccccc3n12,,"inconclusive: 5.62 µM [activator, full curve, poor fit]"
Cc1ccc(CN2C(=NC(=O)CCC(=O)O)SC3CS(=O)(=O)CC32)cc1 (stereo not given),inactive: 2.36% [at 46.1 µM],
CCNC(=O)COc1ccc(OCc2ccccc2)cc1,,"inconclusive: 35.5 µM [inhibitor, single point]"
NC(N)=N[C@@H](CCC(=O)O)C(=O)O,,inactive
Cc1nnc(N(Cc2ccco2)C(=O)c2ccc(C#N)cc2)s1,,"inconclusive: 12.6 µM [activator, single point]"
CCOCCCn1c(SC(C(=O)Nc2cc(C)ccc2C)c2ccccc2)nnc1-c1ccc(Cl)cc1 (stereo not given),,"inconclusive: 20.6 µM [inhibitor, single point]"
CC(C)c1ccccc1OCC(=O)N1CCCCCCC1,,"inconclusive: 4.47 µM [inhibitor, single point]"
Cc1ccc2nc(NC(=O)c3nc(SCc4ccccc4C)ncc3Cl)sc2c1,inactive: 0.958% [at 46.1 µM],
O=C(Cc1cccs1)Nc1ccc(C(=O)O)cc1,,"inconclusive: 2.51 µM [activator, partial curve, poor fit]"

SMILES,"activity change, negative = inhibition",Potency
Cc1nc(Sc2ccc(Br)cc2)c(C#N)c(C)c1[N+](=O)[O-],,"inconclusive: 35.5 µM [inhibitor, single point]"
Cc1ccccc1N(CC(=O)N/N=C/c1ccc(Cl)cc1)C(=O)c1ccccc1,,"inconclusive: 29.1 µM [inhibitor, single point]"
CN(c1ccc(OCC(=O)OCC(=O)Nc2ccccc2)cc1)S(=O)(=O)c1ccc(F)cc1,,"inconclusive: 3.55 µM [inhibitor, single point]"
Cc1ccccc1C1=NCC(=O)N(CC(=O)NCc2ccco2)c2sc3c(c21)CCCC3,,"inconclusive: 14.6 µM [inhibitor, partial curve]"
CCn1c2ccccc2c2cc(NC(=O)CSc3nnc(-c4cccc(OC)c4)n3N)ccc21,,"inconclusive: 25.9 µM [inhibitor, partial curve, poor fit]"
CCCc1cc(=O)[nH]c(SCC(=O)N2CCN(S(=O)(=O)c3ccc(Cl)cc3)CC2)n1,,"inconclusive: 0.224 µM [inhibitor, full curve, poor fit]"
N[C@@H](Cc1ccc(O)cc1)C(=O)Nc1ccc2ccccc2c1,,"inconclusive: 6.31 µM [activator, single point]"
CCOc1ccc(NC(=S)N(CCN2CCOCC2)Cc2cc3cc4c(cc3[nH]c2=O)OCCO4)cc1,,"inconclusive: 5.62 µM [inhibitor, single point]"
COc1ccc(NC(=O)CC2C(=O)N(c3ccc(F)cc3)C(=O)N2CCc2sccc2C)cc1 (stereo not given),,"inconclusive: 5.62 µM [inhibitor, single point]"
CC(C(=O)Nc1ccc([N+](=O)[O-])cc1)N1CCN(C/C=C/c2ccccc2)CC1 (stereo not given),,active: 12.6 µM
COc1ccccc1N1Cc2ccc(OC)c(OC)c2C1=O,,"inconclusive: 7.08 µM [activator, partial curve, poor fit]"
CSc1nc(N)c2ncn([C@@H]3O[C@H](COP(=O)(O)OP(=O)(O)OP(=O)(O)O)[C@H](O)[C@H]3O)c2n1,,"inconclusive: 0.282 µM [inhibitor, full curve]"
O=Cc1ccc(OCC(=O)Nc2ccccc2C(F)(F)F)cc1,inactive: 0.157%,
CCC(=O)NC(c1ccc(N(C)C)cc1)c1c(O)ccc2ccccc12 (stereo not given),inactive: -1.31% [at 46.1 µM],
Cc1ccc(-c2nc3sc(C(N)=O)c(N)c3c3c2CCCC3)cc1,,"inconclusive: 7.08 µM [inhibitor, full curve, poor fit]"
Nn1c(SCC(=O)NCCC2=CCCCC2)nnc1-c1cccnc1,inactive: 0.438%,
CO/N=C/C(c1ncc(C(F)(F)F)cc1Cl)S(=O)(=O)c1ccccc1 (stereo not given),inactive: 0.0085% [at 46.1 µM],
O=C1Nc2ccc(F)cc2C12OCCO2,inactive: 1.14% [at 46.1 µM],
CCc1ccc(/C=N\n2cnnc2)cc1,,"inconclusive: 0.501 µM [inhibitor, full curve, poor fit]"
Cc1ccc(C2(C)NC(=O)N(CC(=O)Nc3cccnc3Cl)C2=O)cc1 (stereo not given),,"inconclusive: 1.58 µM [activator, partial curve, poor fit]"
COc1c(Cl)cc(Cl)cc1CNCCNCC(C)O (stereo not given),,"inconclusive: 23.1 µM [inhibitor, single point]"
